Test results published in the supplement of paper PMC8166895.
Where a name gives a salt, the structure may show the parent alone. The list shows a part of the results. Most values lie at the level of the controls, where differences are scatter.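 A single-replicate pilot screen of approved drugs and clinical or known-target compounds measured melting temperature via differential scanning fluorimetry. Top stabilizing hits raised the melting point by 2 °C or more; negative shifts indicate destabilization.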 *1 amine or outer side, *2 acyl side, *3 side chain or, on linkers, in order; H or OH if unused. Where a SMILES comes first, the peptide text is derived from it. Bridges are numbered along the chain shown (N, C = ends). [ ]: non-standard residue; d: D form. The star is where a group is joined. hTyr(3S-OH,4S-OH,3'-OSO3H) = N[C@H](C(=O)O)[C@H](O)[C@@H](O)c1ccc(O)c(OS(=O)(=O)O)c1; Orn(4R-OH,5R-OH) = O=C([C@H](C[C@@H](O)[C@@H](O)N[*:3])N[*:1])[*:2]; Pro(3S-OH,4S-Me) = C[C@H]1CN[C@H](C(=O)O)[C@H]1O; X2 = CCCCCOc1ccc(-c2cc(-c3ccc(C(=O)*)cc3)no2)cc1; Gln(3R-OH) = NC(=O)C[C@@H](O)[C@H](N)C(=O)O; Hyp = O=C(O)[C@@H]1C[C@@H](O)CN1

test system: SARS-CoV-2 main protease (Mpro, nsp5); assay: thermal shift ΔTm of Mpro relative to plate average Tm; higher = stronger thermal stabilization of Mpro (binding); details: 10 µM; protein concentration 1 µM

Going from CCc1cc2c(cc1N1CCC(N3CCOCC3)CC1)C(C)(C)c1[nH]c3cc(C#N)ccc3c1C2=O [Alectinib] to CNS(=O)(=O)CCc1ccc2[nH]cc(C3CCN(C)CC3)c2c1 [Naratriptan], the “thermal shift ΔTm of Mpro” value rises from 0.0945 °C to 0.556 °C.

Going from CC(=O)O[C@@H]([C@@H](O)C[C@@H](C)C1=C2C[C@H](O)[C@H]3[C@@]4(C)CCC(=O)C(C)(C)[C@@H]4CC[C@]3(C)[C@@]2(C)CC1)C(C)(C)O [Alisol A 24-acetate] to CC(=O)O[C@]1(C(C)=O)CC[C@H]2[C@@H]3C=C(Cl)C4=CC(=O)[C@@H]5C[C@@H]5[C@]4(C)[C@H]3CC[C@@]21C [Cyproterone Acetate], the “thermal shift ΔTm of Mpro” value falls from -0.0526 °C to -0.112 °C.

Compared with O=C(O)C(=O)O.[NH-][C@@H]1CCCC[C@H]1[NH-].[Pt+2] [Oxaliplatin], O=C(O)c1ccc(-c2c[nH]c3ncc(-c4ccccc4)cc23)cc1C1CCCC1 is lower in “thermal shift ΔTm of Mpro” value: 0.316 °C for the first, -0.235 °C for the second.

Going from Cc1ccc(NC(=O)c2ccc(CN3CCN(C)CC3)cc2)cc1Nc1nccc(-c2cccnc2)n1 [Imatinib (STI571)] to Cc1cc(Nc2ncc3c(n2)N(C)C(=O)N(c2cc(NC(=O)c4cccc(C(F)(F)F)c4)ccc2C)C3)n(C)n1 [Pluripotin], the “thermal shift ΔTm of Mpro” value falls from -0.00963 °C to -0.136 °C.

First: Cc1ccc(NC(=O)c2ccc(CN3CCN(C)CC3)cc2)cc1Nc1nccc(-c2cccnc2)n1 [Imatinib Mesylate (STI571)]
Second: O=C(Nc1nc2cccc(-c3ccc(CN4CCS(=O)(=O)CC4)cc3)n2n1)C1CC1 [Filgotinib (GLPG0634)]
The “thermal shift ΔTm of Mpro” value of the first is higher: -0.058 °C for the first, -0.0706 °C for the second.

First: CC(C)C(=O)Oc1ccc(CO)cc1[C@H](CCN(C(C)C)C(C)C)c1ccccc1 [Fesoterodine Fumarate]
Second: Cc1ccc(NCCCc2ccccc2)c(N)c1
The “thermal shift ΔTm of Mpro” value of the first is higher: -0.0365 °C for the first, -0.389 °C for the second.

Going from Cc1nn(-c2ccccc2)c(C)c1C=NN1CCN(Cc2ccccc2)CC1 to Clc1ccc(Cn2c(CN3CCCC3)nc3ccccc32)cc1 [Clemizole], the “thermal shift ΔTm of Mpro” value rises from -0.0914 °C to 0.0651 °C.

Going from O=C(N/N=C/c1coc2ccccc2c1=O)c1cccnc1 [STAT5 Inhibitor] to O=C(NO)c1cccc(C(=O)NCCc2ccccc2)c1, the “thermal shift ΔTm of Mpro” value falls from 0.0416 °C to -0.23 °C.

Going from O=C(NCC1(c2nc(-c3ccccc3)cs2)CCOCC1)c1cccc(-c2noc(C(F)(F)F)n2)c1 to CC(=O)Nc1nc2c(Oc3cc(-c4ccc(C(F)(F)F)cc4)ncn3)cccc2s1, the “thermal shift ΔTm of Mpro” value rises from -0.0658 °C to -0.00238 °C.

Compared with O=C(NCc1c(F)cc(F)cc1F)c1cn2c(c(O)c1=O)C(=O)N1[C@H]3CC[C@H](C3)O[C@@H]1C2 [Bictegravir], CN1C[C@@H]2C[C@H]1CN2c1cc2c(cc1F)c(=O)c(C(=O)O)cn2C1CC1 [Danofloxacin mesylate] is higher in “thermal shift ΔTm of Mpro” value: -0.0131 °C for the first, 0.185 °C for the second.

Compared with CC(=O)Oc1ccccc1C(=O)O [Aspirin], O=C(O)/C=C/c1ccc(O)c(O)c1 [Caffeic Acid] is lower in “thermal shift ΔTm of Mpro” value: 0.0239 °C for the first, -0.469 °C for the second.

First: O=C(O)CNC(=O)c1c(O)c2ccccc2n(Cc2ccccc2)c1=O
Second: O=C(O)Cc1nn(Cc2ccc(Br)cc2F)c(=O)c2ccccc12 [Ponalrestat]
The “thermal shift ΔTm of Mpro” value of the first is lower: -0.126 °C for the first, -0.0151 °C for the second.

Going from COc1ccc2ccc(=O)oc2c1CC=C(C)C [Osthole] to N=C(N)Nc1ccc(C(=O)Oc2ccc3cc(C(=N)N)ccc3c2)cc1 [Nafamostat Mesylate], the “thermal shift ΔTm of Mpro” value rises from -0.147 °C to 0.189 °C.

First: N=C(N)NS(=O)(=O)c1ccc(N)cc1 [Sulfaguanidine]
Second: N=C(N)c1ccc2nc(-c3cc(CC(=O)N[C@@H](CC(=O)O)C(=O)O)cc(-c4cc(S(N)(=O)=O)ccc4O)c3O)[nH]c2c1
The “thermal shift ΔTm of Mpro” value of the first is higher: -0.0187 °C for the first, -0.039 °C for the second.

Compared with CSCC1CN(/N=C/c2ccc([N+](=O)[O-])o2)C(=O)O1 (centres undefined) [Nifuratel], CN1CCc2cc(Cl)c(O)cc2[C@@H](c2ccccc2)C1 is lower in “thermal shift ΔTm of Mpro” value: 0.153 °C for the first, -0.0735 °C for the second.

First: C[C@H](NP(=O)(OC[C@H]1O[C@@H](n2ccc(N)nc2=O)C(F)(F)[C@@H]1O)Oc1ccccc1)C(=O)OCc1ccccc1 (some centres undefined) [Acelarin]
Second: NC(=O)c1cc[n+](CC2=C(C(=O)[O-])N3C(=O)[C@@H](NC(=O)[C@@H](c4ccccc4)S(=O)(=O)O)[C@H]3SC2)cc1 [Cefsulodine sodium]
The “thermal shift ΔTm of Mpro” value of the first is higher: 0.0358 °C for the first, 0.0267 °C for the second.

Going from C[C@]12CC[C@H](O)CC1=CC[C@@H]1[C@@H]2CC[C@]2(C)C(n3cnc4ccccc43)=CC[C@@H]12 [Galeterone] to C[C@]12CC[C@H](O)C[C@H]1CC[C@@H]1[C@@H]2CC[C@]2(C)[C@@](O)(c3ccoc3)CC[C@]12O [Rostafuroxin], the “thermal shift ΔTm of Mpro” value rises from -0.603 °C to 0.0856 °C.

First: Cc1c(C(=O)c2cccc3ccccc23)c2cccc3c2n1[C@H](CN1CCOCC1)CO3 [WIN 55,212-2 Mesylate]
Second: Oc1ccc2ccccc2c1SSc1c(O)ccc2ccccc12
The “thermal shift ΔTm of Mpro” value of the first is lower: -0.0483 °C for the first, 0.443 °C for the second.

Going from CC1=C(/C=C/C(C)=C/C=C/C(C)=C/C(=O)O)C(C)(C)CCC1 [Tretinoin] to CC1(C)CCC(C)(C)c2cc(NC(=O)c3ccc(C(=O)O)cc3)ccc21 [Tamibarotene], the “thermal shift ΔTm of Mpro” value falls from -0.00731 °C to -0.0461 °C.

First: Nc1nc(NC2CC2)cc(-c2cccc(Cl)c2Cl)n1
Second: O=C1c2ccccc2C(=O)C1c1ccc(Cl)cc1 [chlophenadione]
The “thermal shift ΔTm of Mpro” value of the first is lower: -0.103 °C for the first, 0.259 °C for the second.

First: O=[N+]([O-])c1cncn1CCN1CCOCC1 [Nimorazole]
Second: O=C(O)COCCN1CCN(C(c2ccccc2)c2ccc(Cl)cc2)CC1 (centres undefined) [Cetirizine DiHCl]
The “thermal shift ΔTm of Mpro” value of the first is lower: 0.000875 °C for the first, 0.289 °C for the second.

First: C=CC(=O)Nc1cc(Nc2nccc(-c3c[nH]c4ccccc34)n2)c(OC)cc1N(C)CCN(C)C
Second: C=CC(=O)Nc1cc(Nc2nccc(-c3cn(C)c4ccccc34)n2)c(OC)cc1N(C)CCN(C)C
The “thermal shift ΔTm of Mpro” value of the first is lower: -0.0677 °C for the first, -0.0123 °C for the second.

First: C#Cc1cccc(Nc2ncnc3cc4c(cc23)OCCOCCOCCO4)c1 [Icotinib]
Second: C=CC(=O)Nc1cccc(Nc2nc(Nc3ccc(Oc4ccnc(C(=O)NC)c4)cc3)ncc2F)c1
The “thermal shift ΔTm of Mpro” value of the first is lower: 0.0933 °C for the first, 0.46 °C for the second.

First: c1ccc(-c2[nH]ncc2-c2ccnc3ccccc23)nc1
Second: Cc1[nH]c2ccccc2c1C1=C(NCCc2ccc(F)cc2)C(=O)N(C)C1=O
The “thermal shift ΔTm of Mpro” value of the first is higher: 0.0139 °C for the first, -0.28 °C for the second.

Compared with OC(c1ccccc1)(c1ccccc1)C12CC[N+](CCOCc3ccccc3)(CC1)CC2 [Umeclidinium bromide], O=C(O)c1cc(C(F)(F)F)ccc1N1CC[C@H](OCc2ccccn2)C1 is lower in “thermal shift ΔTm of Mpro” value: 0.081 °C for the first, -0.3 °C for the second.

Compared with C[C@H](O)[C@H](O)[C@@H](O)[C@@H](O)C=O [L-(+)-Rhamnose Monohydrate], O=C(O)C(O)Cc1ccc(O)c(O)c1 (centres undefined) [Sodium Danshensu] is lower in “thermal shift ΔTm of Mpro” value: -0.132 °C for the first, -0.881 °C for the second.

Going from Cc1ncc(CO)c(CO)c1O [Pyridoxine HCl] to Cc1ncc(CO)c(C(=O)O)c1O [4-Pyridoxic Acid], the “thermal shift ΔTm of Mpro” value falls from 0.111 °C to 0.108 °C.

Going from N[C@H]1C[C@@H]1c1ccc(-c2cccc(O)c2)cc1 to N[C@@H](Cc1c[nH]c2ccc(O)cc12)C(=O)O [5-hydroxytryptophan (5-HTP)], the “thermal shift ΔTm of Mpro” value falls from 0.0127 °C to -0.519 °C.

First: CC(C)(Sc1cc(C(C)(C)C)c(OC(=O)CCC(=O)O)c(C(C)(C)C)c1)Sc1cc(C(C)(C)C)c(OC(=O)CCC(=O)O)c(C(C)(C)C)c1 [Probucol disuccinate]
Second: COc1cc(C(=O)O)ccc1NC(=O)[C@@H]1N[C@@H](CC(C)(C)C)[C@](C#N)(c2ccc(Cl)cc2F)[C@H]1c1cccc(Cl)c1F [Idasanutlin (RG-7388)]
The “thermal shift ΔTm of Mpro” value of the first is lower: -2.54 °C for the first, -0.217 °C for the second.

First: CC(C)c1cc(-c2n[nH]c(=O)n2-c2ccc3c(ccn3C)c2)c(O)cc1O [Ganetespib (STA-9090)]
Second: COc1ccc(-c2ccc3ncc4c(c3c2)n(-c2ccc(N3CCNCC3)c(C(F)(F)F)c2)c(=O)n4C)cn1
The “thermal shift ΔTm of Mpro” value of the first is lower: -0.234 °C for the first, -0.186 °C for the second.

First: CCCSc1nc(N[C@@H]2C[C@H]2c2ccc(F)c(F)c2)c2nnn([C@@H]3C[C@H](OCCO)[C@@H](O)[C@H]3O)c2n1 [Ticagrelor]
Second: CC1(C)CC(=O)c2c(C(F)(F)F)nn(-c3ccc(C(N)=O)c(N[C@H]4CC[C@H](O)CC4)c3)c2C1
The “thermal shift ΔTm of Mpro” value of the first is lower: 0.0175 °C for the first, 0.07 °C for the second.

Compared with C=C1C[C@@]2(O)O[C@@]3(C[C@H]2C(C)C)[C@@H](C)CC[C@@H]13 [Curcumol], CC(=O)O[C@]1(C(C)=O)CC[C@H]2[C@@H]3CCC4=CC(=O)CCC4=C3[C@@H](c3ccc(N(C)C)cc3)C[C@@]21C [Ulipristal acetate] is higher in “thermal shift ΔTm of Mpro” value: -0.0043 °C for the first, 0.288 °C for the second.

Going from Cc1cc(C)c(-c2csc(NC(=O)c3ccccc3)n2)c(C)c1 to COc1cc2nc(N(C)CCCNC(=O)C3CCCO3)nc(N)c2cc1OC (centres undefined) [Alfuzosin HCl], the “thermal shift ΔTm of Mpro” value rises from -0.072 °C to 0.0827 °C.

Compared with CC(C)n1nc(-c2ccc3oc(N)nc3c2)c2c(N)ncnc21, N#CSc1cc(SC#N)c(N)nc1N is lower in “thermal shift ΔTm of Mpro” value: -0.0724 °C for the first, -2.11 °C for the second.

Compared with Nc1ccc(/C=C/C(=O)NCc2cc3cc(-c4ccc(C(=O)N5CCC(F)(F)CC5)cc4)cc(-c4ccc(F)cc4)c3o2)cn1, CCCCCOc1ccc(-c2cc(-c3ccc(C(=O)N[C@H]4C[C@@H](O)[C@@H](O)NC(=O)[C@@H]5[C@@H](O)[C@@H](C)CN5C(=O)[C@H]([C@H](O)CC(N)=O)NC(=O)[C@H]([C@H](O)[C@@H](O)c5ccc(O)c(OS(=O)(=O)O)c5)NC(=O)[C@@H]5C[C@@H](O)CN5C(=O)[C@H]([C@@H](C)O)NC4=O)cc3)no2)cc1 [Micafungin Sodium] (X2-[Orn(4R-OH,5R-OH)]T[Hyp][hTyr(3S-OH,4S-OH,3'-OSO3H)][Gln(3R-OH)][Pro(3S-OH,4S-Me)]; lactam 1-C) is lower in “thermal shift ΔTm of Mpro” value: 0.137 °C for the first, -0.378 °C for the second.

First: NC(=O)c1nc(F)cnc1O [Favipiravir]
Second: N[C@@H](Cc1cc(I)c(Oc2cc(I)c(O)c(I)c2)c(I)c1)C(=O)O [L-Thyroxine]
The “thermal shift ΔTm of Mpro” value of the first is lower: 0.0849 °C for the first, 0.103 °C for the second.

Going from CCCCc1nc2cc(/C=C/C(=O)NO)ccc2n1CCN(CC)CC [Pracinostat (SB939)] to C[N+](C)(C)CCCCCCCCCC[N+](C)(C)C [Decamethonium Bromide], the “thermal shift ΔTm of Mpro” value falls from 0.578 °C to 0.177 °C.
